The text below walks through data of article PMC10930986.

These are yes or no findings as the source states them, for the method shown. In cells and extracts the contact can be indirect. Some results given as binding are weak or reduced against the parent protein; the word gives no strength.

This assay concerns the target voltage-dependent anion channel 1 (VDAC1) (human (endogenous in MCF-10A, MDA-MB-231, Hs578t)), P21796. Nature of the assay: co-IP; HKII and GSK3β co-immunoprecipitated with VDAC1; MCF-10A, MDA-MB-231 and Hs578t cells transfected for 48 h with pmOGT-HaloTaq or pHaloTaq (control). The settings on record: remark: other sources report otherwise.

B1: hexokinase II, P52789 1-917 (enzyme)
chain: MIASHLLAYFFTELNHDQVQKVDQYLYHMRLSDETLLEISKRFRKEMEKGLGATTHPTAAVKMLPTFVRSTPDGTEHGEFLALDLGGTNFRVLWVKVTDNGLQKVEMENQIYAIPEDIMRGSGTQLFDHIAECLANFMDKLQIKDKKLPLGFTFSFPCHQTKLDESFLVSWTKGFKSSGVEGRDVVALIRKAIQRRGDFDIDIVAVVNDTVGTMMTCGYDDHNCEIGLIVGTGSNACYMEEMRHIDMVEGDEGRMCINMEWGAFGDDGSLNDIRTEFDQEIDMGSLNPGKQLFEKMISGMYMGELVRLILVKMAKEELLFGGKLSPELLNTGRFETKDISDIEGEKDGIRKAREVLMRLGLDPTQEDCVATHRICQIVSTRSASLCAATLAAVLQRIKENKGEERLRSTIGVDGSVYKKHPHFAKRLHKTVRRLVPGCDVRFLRSEDGSGKGAAMVTAVAYRLADQHRARQKTLEHLQLSHDQLLEVKRRMKVEMERGLSKETHASAPVKMLPTYVCATPDGTEKGDFLALDLGGTNFRVLLVRVRNGKWGGVEMHNKIYAIPQEVMHGTGDELFDHIVQCIADFLEYMGMKGVSLPLGFTFSFPCQQNSLDESILLKWTKGFKASGCEGEDVVTLLKEAIHRREEFDLDVVAVVNDTVGTMMTCGFEDPHCEVGLIVGTGSNACYMEEMRNVELVEGEEGRMCVNMEWGAFGDNGCLDDFRTEFDVAVDELSLNPGKQRFEKMISGMYLGEIVRNILIDFTKRGLLFRGRISERLKTRGIFETKFLSQIESDCLALLQVRAILQHLGLESTCDDSIIVKEVCTVVARRAAQLCGAGMAAVVDRIRENRGLDALKVTVGVDGTLYKLHPHFAKVMHETVKDLAPKCDVSFLQSEDGSGKGAALITAVACRIREAGQR
On to B1, for which the binding result was “binds”.
